The other results are listed elsewhere or left out.

Chains of the proteins cited; added tags and fusions are not shown.
UniProt Q0JBA9, entry or part of it: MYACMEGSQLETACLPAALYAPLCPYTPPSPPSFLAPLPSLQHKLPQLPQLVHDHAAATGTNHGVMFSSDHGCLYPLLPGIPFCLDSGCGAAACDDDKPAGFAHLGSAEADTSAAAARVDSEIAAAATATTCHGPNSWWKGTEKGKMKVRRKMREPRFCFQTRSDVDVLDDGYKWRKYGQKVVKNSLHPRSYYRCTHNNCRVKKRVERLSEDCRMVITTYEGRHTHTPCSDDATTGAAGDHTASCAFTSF

From article PMC7819943, “Rice protein-binding microarrays: a tool to detect cis-acting elements near promoter regions in rice” come the findings set out here.

The target of this experiment is OsWRKY34 (Oryza sativa, UniProt Q0JBA9 1-250). Description: protein-binding microarray (RPBM); PBS, 2% BSA, 51.3 ng/ul salmon testes DNA, 50 uM zinc acetate, 200 nM TF, 25 C, 1 h; high values mean tight binding. The following applies: protein: recombinant; tags: N-terminal polyhistidine and DsRed monomer fusion (pET32a); label: CyDye5-dUTP incorporated in the synthesized complementary strand; 3' TTTTT single-stranded linker to array surface; dsDNA, one strand shown. The method, boiled down: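 For the binding signal, per-feature fluorescence intensity was read in arbitrary units on an Axon 4000B scanner. Before scanning, a 2% BSA-blocked custom Agilent array made double-stranded with Cy5-dUTP was washed after 1 h at 25 °C with 200 nM protein and 50 µM zinc acetate. The proteins were Ni–NTA-purified transcription factors with N-terminal polyhistidine and DsRed fusions, expressed in E. coli BL21-CodonPlus.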
As for “AATTCAAATATGCTTCCACGTATTATTTAGCCACTCATTTCGGAGTCACCTAGTGCAG”, the binding signal is 11200 fluorescence intensity (a.u.).
To “CAAATTTTCCGTCGTGTCGTTCTAATTTCAATCAAATTTCCGGAGTCACCTAGTGCAG” belongs 13700 fluorescence intensity (a.u.); to “AATTTGCAATTGCCCGTTCTTTTATACGCAGAGACTCCGACGGAGTCACCTAGTGCAG”, 8640 fluorescence intensity (a.u.); to “GAACCTTGGCGATCTCTCTCTTTTCTACCTCTCTTCATACCGGAGTCACCTAGTGCAG”, 12000 fluorescence intensity (a.u.).
Take “GTAATCAGATCGTCAATATTTTTTTTCAAATCGTAATTATCGGAGTCACCTAGTGCAG”: the binding signal was 9180 fluorescence intensity (a.u.).
Consider “CCAAGGCTGCAATTTTTTCCCCATAATCAGGTATACGAATCGGAGTCACCTAGTGCAG”, for which the binding signal is 8750 fluorescence intensity (a.u.).
The value for “CCTCGCCTCCACGACCGGTCGCCGCCTCGTCCGCGACCGCCGGAGTCACCTAGTGCAG” was 8480 fluorescence intensity (a.u.); that for “TAGTGATCCGAAACATAGACTGCATTTTTCTCATATTTTCCGGAGTCACCTAGTGCAG” was 9050 fluorescence intensity (a.u.); that for “CAATGTTGTTGAGACCATTTTGCCTGATTGTTTTCTATTCCGGAGTCACCTAGTGCAG” was 9670 fluorescence intensity (a.u.).
As to “GAAAATAATTGTCGTACACTCGCAGCTATATTTGTTATTTCGGAGTCACCTAGTGCAG”, the binding signal was 8340 fluorescence intensity (a.u.).
On to “CTCCTCCTGTCCTGGCCCTTGTCTTCTCCACGTCTCTCCCCGGAGTCACCTAGTGCAG”, for which the binding signal was 9200 fluorescence intensity (a.u.).
Consider “TCCTACTACTAGTCAATCGTTTGACTATTCGTCCTATTAACGGAGTCACCTAGTGCAG”, for which the binding signal is 11900 fluorescence intensity (a.u.).
“GCCTACAAAACTCGAGTATTATCTTCATCCATCCCTAATCCGGAGTCACCTAGTGCAG”: the binding signal was 9800 fluorescence intensity (a.u.).
With “ACATGTAGCCATATGGGTTCTACGGTTTTTATTATTTTTTCGGAGTCACCTAGTGCAG”, the binding signal was 8380 fluorescence intensity (a.u.).
Regarding “CCCCACATCTTTTGCTAGCATGCCCCTACCCATTCATATTCGGAGTCACCTAGTGCAG”, the binding signal is 10500 ± 300 fluorescence intensity (a.u.).
For the sequence “GCTCGCGCGCGCCGCGACGTCGTCGGAGCCAACATTATTTCGGAGTCACCTAGTGCAG”, the binding signal was 8080 fluorescence intensity (a.u.).
Consider “CTAGTGTGCATTTAACCACAGCAGCTGGTATGATAGTCCCCGGAGTCACCTAGTGCAG”, for which the binding signal is 8490 fluorescence intensity (a.u.).
Turning to “TCTCGATTCCAGCCCAACTAGCGCCACTCCCACCTGGGCCCGGAGTCACCTAGTGCAG”, the binding signal was 8170 fluorescence intensity (a.u.).
Regarding “ACCTACATTGGTCTTACTGGCATGCCTGAACTTCCCTGCACGGAGTCACCTAGTGCAG”, the binding signal was 8170 fluorescence intensity (a.u.).
For the sequence “ATCTGATCTGCTGGGTTTGTGGGAAGGGGCATATAAGGAGCGGAGTCACCTAGTGCAG”, the binding signal was 12000 fluorescence intensity (a.u.).
For “CCCGCCCATCGCCGCTCCGCCCTCTCCGCCGCTGGCCTCACGGAGTCACCTAGTGCAG”, the binding signal is 8420 fluorescence intensity (a.u.).
Regarding “CTTGTACTTGGTGGTATACCCCTAGCTGCTCGCCTTTGTGCGGAGTCACCTAGTGCAG”, the binding signal is 10200 fluorescence intensity (a.u.).
On to “TCTCTCTCTCTCTCTCTCTCTCTCTCTCTCTGTCTCTCTCCGGAGTCACCTAGTGCAG”, for which the binding signal was 10200 fluorescence intensity (a.u.).
For the sequence “AATCGGGGAAGCCTATCGGTTAGTTAGGAGTTGAGTTGACCGGAGTCACCTAGTGCAG”, the binding signal was 9230 fluorescence intensity (a.u.).
On to “GCCTAGTTGATTGAACATTCGTTTTCTTTCAACAAATAAGCGGAGTCACCTAGTGCAG”, for which the binding signal was 8310 fluorescence intensity (a.u.).
As to “TCCGGCTATTCTCATTGCCGGCCAAGCCTTTTTCTTCTACCGGAGTCACCTAGTGCAG”, the binding signal was 8130 fluorescence intensity (a.u.).
Turning to “CACACTTTATTCTCCTATATCTAAAGAGCACAGGAACGGGCGGAGTCACCTAGTGCAG”, the binding signal is 8370 fluorescence intensity (a.u.).
Take “ATTCCTGTGTTTTTCCTGTGTTTTGCAATCCTCTGTTTTACGGAGTCACCTAGTGCAG”: the binding signal is 10200 fluorescence intensity (a.u.).
On to “ACACTTACCTAGCTAATTGTCCAACTGCCCCTACCTTGGACGGAGTCACCTAGTGCAG”, for which the binding signal is 9630 fluorescence intensity (a.u.).
Turning to “GTACGTACAACATTGTGTATCTGTTTTGTAAGTTATTAACCGGAGTCACCTAGTGCAG”, the binding signal is 9710 fluorescence intensity (a.u.).
For the sequence “GCCGCCGCGCTCGCCCACCGCCCGCCCATCGCCGCTCCGCCGGAGTCACCTAGTGCAG”, the binding signal is 9990 fluorescence intensity (a.u.).
To “AATTACAATTTCTTAATCTTTGCGTCTAAACCAGTTACACCGGAGTCACCTAGTGCAG” belongs 8490 fluorescence intensity (a.u.); to “ACTAATTATTGTGTTAGTGAGCTTTCTTTGTTTTTTTGTTCGGAGTCACCTAGTGCAG”, 9670 fluorescence intensity (a.u.); to “CTTCACTCACATTGTACCTAAGCTGGCCTTGACTGGAAAGCGGAGTCACCTAGTGCAG”, 8600 fluorescence intensity (a.u.).
On to “ACTTCCTTTCTTGTTAAGTTGGCGTGATGTTTTCTGCTGACGGAGTCACCTAGTGCAG”, for which the binding signal was 8300 fluorescence intensity (a.u.).
To “TAGAATATACAGTTTCAGTCGGGCTCTGCGCTCAGTTTGTCGGAGTCACCTAGTGCAG” belongs 9560 fluorescence intensity (a.u.).
Regarding “CTCTCCCATCGTGACTACTTTTGTCTGGATATTGTTTGCGCGGAGTCACCTAGTGCAG”, the binding signal is 10400 fluorescence intensity (a.u.).
As for “GATTCTTCATATTTTGTTCAGATCTCTGCCTATTCTTCTCCGGAGTCACCTAGTGCAG”, the binding signal was 8860 fluorescence intensity (a.u.).
The value for “GTTCATCCTTCACTATCTCTTTGAAAGATTCTTCATGATTCGGAGTCACCTAGTGCAG” was 8730 fluorescence intensity (a.u.); that for “TCGTTTCAGTTTTCTTGCTCACGATTTAGGTTTGTTTCCTCGGAGTCACCTAGTGCAG” was 10000 fluorescence intensity (a.u.).
For “ATCCATACCCTAATATGTCCATCGTTGCTGGTGCTTGGCACGGAGTCACCTAGTGCAG”, the binding signal is 8230 fluorescence intensity (a.u.).
Consider “CACTATAGTCTTTTACAACCGTCGATAAAATTCAGTCGTACGGAGTCACCTAGTGCAG”, for which the binding signal is 8270 fluorescence intensity (a.u.).
As to “GGACACCCACGTCCACATCGGCGACCGCCGCCCCAACGCCCGGAGTCACCTAGTGCAG”, the binding signal was 8330 fluorescence intensity (a.u.).
Consider “GGTGGGGTCTCGTCTCGTCGCCGGTGAAGCCGCCGCCATGCGGAGTCACCTAGTGCAG”, for which the binding signal is 10600 fluorescence intensity (a.u.).
To “TTTGTGCAATCTGCAGTCGTCCCATGTCGATTTTGTGCAACGGAGTCACCTAGTGCAG” belongs 8240 fluorescence intensity (a.u.); to “CGGAGAGAGCAGGGGCGGTGGGCGGTGGGCCCGTGCTCGCCGGAGTCACCTAGTGCAG”, 8500 fluorescence intensity (a.u.).
For “GTTTATTGTATTTGGAGTAAGTGATTGTAACTTTTTTTTACGGAGTCACCTAGTGCAG”, the binding signal was 9200 fluorescence intensity (a.u.).
For the sequence “CTAATACTTAATTAATCACGCGCTAATGGACCGTTTCGTTCGGAGTCACCTAGTGCAG”, the binding signal was 10200 fluorescence intensity (a.u.).
For “TCACACGGTTGCAAGAGTCTACATTTTAACATGTTTTTTTCGGAGTCACCTAGTGCAG”, the binding signal is 8040 fluorescence intensity (a.u.).
On to “TCTAACTACTACCATGCACCTTTCTCTTTATTTGCATAAGCGGAGTCACCTAGTGCAG”, for which the binding signal is 9320 fluorescence intensity (a.u.).
As to “GTATCCTAGTTAACCCAAGTGTTTAATTCTGTCTGTATACCGGAGTCACCTAGTGCAG”, the binding signal is 8670 fluorescence intensity (a.u.).
To “AGACACCACCTACCGCGCGCGTCGCGTACTCGCGTGCCCACGGAGTCACCTAGTGCAG” belongs 9060 fluorescence intensity (a.u.); to “CGCCGTCATCCTTCTTTCCACGCCATCGCCGTCGCCGATTCGGAGTCACCTAGTGCAG”, 13300 fluorescence intensity (a.u.).
Take “GATGTTTCTGCTGCTGCAGTCATTGGCATCCAGTGCTTTCCGGAGTCACCTAGTGCAG”: the binding signal was 8380 fluorescence intensity (a.u.).
